Measured values: the supplement of paper PMC8728848
This is one part of the list.

Columns and labels:
Assay in all cases: glycan array binding signal (z-score within array); higher = stronger binding
Details in all cases: glycan notation: IUPAC condensed, linker removed; mutation: D224N
[1] = biological target: GlcNAc(b1-3)Gal(b1-4)GlcNAc(b1-3)Gal(b1-4)GlcNAc(b1-2)Man(a1-3)[GlcNAc(b1-3)Gal(b1-4)GlcNAc(b1-3)Gal(b1-4)GlcNAc(b1-2)Man(a1-6)]Man(b1-4)GlcNAc(b1-4)GlcNAc
Outline: (§1)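 Columns mapping to the same glycan were averaged after glycan names were converted to IUPAC-condensed notation. The data come from 3228 arrays in the Consortium for Functional Glycomics database, limited to those with an available protein sequence. Binding is reported as a within-array Z-score averaged across arrays of one protein sequence and across linkers.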

[2] = biological target: GlcNAc(b1-3)Gal(b1-4)GlcNAc(b1-3)Gal(b1-4)GlcNAc(b1-2)Man(a1-3)[GlcNAc(b1-3)Gal(b1-4)GlcNAc(b1-3)Gal(b1-4)GlcNAc(b1-2)Man(a1-6)]Man(b1-4)GlcNAc(b1-4)[Fuc(a1-6)]GlcNAc
Outline: as §1

[3] = biological target: GlcNAc(b1-3)Gal(b1-4)GlcNAc(b1-3)Gal(b1-4)GlcNAc(b1-2)[GlcNAc(b1-3)Gal(b1-4)GlcNAc(b1-3)Gal(b1-4)GlcNAc(b1-6)]Man(a1-6)[GlcNAc(b1-3)Gal(b1-4)GlcNAc(b1-3)Gal(b1-4)GlcNAc(b1-2)Man(a1-3)]Man(b1-4)GlcNAc(b1-4)[Fuc(a1-6)]GlcNAc
Outline: as §1

[4] = biological target: GlcNAc(b1-3)Gal(b1-4)GlcNAc(b1-3)Gal(b1-4)GlcNAc(b1-3)Gal(b1-4)GlcNAc(b1-2)Man(a1-3)[GlcNAc(b1-3)Gal(b1-4)GlcNAc(b1-3)Gal(b1-4)GlcNAc(b1-3)Gal(b1-4)GlcNAc(b1-2)Man(a1-6)]Man(b1-4)GlcNAc(b1-4)GlcNAc
Outline: as §1

[5] = biological target: GlcNAc(b1-3)Gal(b1-4)GlcNAc(b1-3)Gal(b1-4)GlcNAc(b1-3)Gal(b1-4)GlcNAc(b1-2)Man(a1-3)[GlcNAc(b1-3)Gal(b1-4)GlcNAc(b1-3)Gal(b1-4)GlcNAc(b1-3)Gal(b1-4)GlcNAc(b1-2)Man(a1-6)]Man(b1-4)GlcNAc(b1-4)[Fuc(a1-6)]GlcNAc
Outline: as §1

[6] = biological target: GlcNAc(b1-3)Gal(b1-4)GlcNAc(b1-3)Gal(b1-4)GlcNAc(b1-3)Gal(b1-4)GlcNAc(b1-2)[GlcNAc(b1-3)Gal(b1-4)GlcNAc(b1-3)Gal(b1-4)GlcNAc(b1-3)Gal(b1-4)GlcNAc(b1-6)]Man(a1-6)[GlcNAc(b1-3)Gal(b1-4)GlcNAc(b1-3)Gal(b1-4)GlcNAc(b1-3)Gal(b1-4)GlcNAc(b1-2)Man(a1-3)]Man(b1-4)GlcNAc(b1-4)[Fuc(a1-6)]GlcNAc
Outline: as §1

[7] = biological target: GlcNAc(b1-3)Gal(b1-4)GlcNAc(b1-3)Gal(b1-4)GlcNAc(b1-3)Gal(b1-4)GlcNAc(b1-3)Gal(b1-4)GlcNAc(b1-2)Man(a1-3)[GlcNAc(b1-3)Gal(b1-4)GlcNAc(b1-3)Gal(b1-4)GlcNAc(b1-3)Gal(b1-4)GlcNAc(b1-3)Gal(b1-4)GlcNAc(b1-2)Man(a1-6)]Man(b1-4)GlcNAc(b1-4)GlcNAc
Outline: as §1

[8] = biological target: GlcNAc(b1-3)Gal(b1-4)GlcNAc(b1-3)Gal(b1-4)GlcNAc(b1-3)Gal(b1-4)GlcNAc(b1-3)Gal(b1-4)GlcNAc(b1-2)Man(a1-3)[GlcNAc(b1-3)Gal(b1-4)GlcNAc(b1-3)Gal(b1-4)GlcNAc(b1-3)Gal(b1-4)GlcNAc(b1-3)Gal(b1-4)GlcNAc(b1-2)Man(a1-6)]Man(b1-4)GlcNAc(b1-4)[Fuc(a1-6)]GlcNAc
Outline: as §1

[9] = biological target: GlcNAc(b1-3)Gal(b1-4)GlcNAc(b1-3)Gal(b1-4)GlcNAc(b1-3)Gal(b1-4)GlcNAc(b1-3)Gal(b1-4)GlcNAc(b1-2)[GlcNAc(b1-3)Gal(b1-4)GlcNAc(b1-3)Gal(b1-4)GlcNAc(b1-3)Gal(b1-4)GlcNAc(b1-3)Gal(b1-4)GlcNAc(b1-6)]Man(a1-6)[GlcNAc(b1-3)Gal(b1-4)GlcNAc(b1-3)Gal(b1-4)GlcNAc(b1-3)Gal(b1-4)GlcNAc(b1-3)Gal(b1-4)GlcNAc(b1-2)Man(a1-3)]Man(b1-4)GlcNAc(b1-4)[Fuc(a1-6)]GlcNAc
Outline: as §1

[10] = biological target: GlcNAc(b1-3)Gal(b1-4)GlcNAc(b1-3)Gal(b1-4)GlcNAc(b1-3)GalNAc
Outline: as §1

[11] = biological target: GlcNAc(b1-3)Gal(b1-4)GlcNAc(b1-3)GalNAc
Outline: as §1

[12] = biological target: GlcNAc(b1-3)Gal(b1-4)GlcNAc(b1-3)[GlcNAc(b1-3)Gal(b1-4)GlcNAc(b1-3)]GalNAc
Outline: as §1

[13] = biological target: GlcNAc(b1-3)Gal(b1-4)GlcNAc(b1-6)[Gal(b1-3)]GalNAc
Outline: as §1

[14] = biological target: GlcNAc(b1-3)Gal(b1-4)GlcNAc(b1-6)[GlcNAc(b1-3)Gal(b1-3)]GalNAc
Outline: as §1

[15] = biological target: GlcNAc(b1-3)Gal(b1-4)GlcNAc(b1-6)[GlcNAc(b1-3)]Gal(b1-4)GlcNAc
Outline: as §1

[16] = biological target: GlcNAc(b1-3)GalNAc
Outline: as §1

[17] = biological target: GlcNAc(b1-3)Man
Outline: as §1

[18] = biological target: GlcNAc(b1-3)[GlcNAc(b1-4)][GlcNAc(b1-6)]GlcNAc
Outline: as §1

[19] = biological target: GlcNAc(b1-3)[GlcNAc(b1-6)]Gal(b1-4)GlcNAc
Outline: as §1

[20] = biological target: GlcNAc(b1-3)[GlcNAc(b1-6)]GalNAc
Outline: as §1

[21] = biological target: GlcNAc(b1-4)Gal(b1-4)GlcNAc
Outline: as §1

[22] = biological target: GlcNAc(b1-4)GlcNAc
Outline: as §1

[23] = biological target: GlcNAc(b1-4)GlcNAc(b1-4)GlcNAc
Outline: as §1

[24] = biological target: GlcNAc(b1-4)GlcNAc(b1-4)GlcNAc(b1-4)GlcNAc(b1-4)GlcNAc
Outline: as §1

[25] = biological target: GlcNAc(b1-4)GlcNAc(b1-4)GlcNAc(b1-4)GlcNAc(b1-4)GlcNAc(b1-4)GlcNAc
Outline: as §1

[26] = biological target: GlcNAc(b1-4)[GlcNAc(b1-6)]GalNAc
Outline: as §1

[27] = biological target: GlcNAc(b1-6)Gal(b1-4)GlcNAc
Outline: as §1

[28] = biological target: GlcNAc(b1-6)GalNAc
Outline: as §1

[29] = biological target: GlcNAc6S(b1-3)Gal(b1-4)GlcNAc
Outline: as §1

[30] = biological target: Kdn(a2-3)Gal(b1-3)GalNAc
Outline: as §1

[31] = biological target: Kdn(a2-3)Gal(b1-3)GlcNAc
Outline: as §1

[32] = biological target: Kdn(a2-3)Gal(b1-4)Glc
Outline: as §1

[33] = biological target: Kdn(a2-3)Gal(b1-4)GlcNAc
Outline: as §1

[34] = biological target: Kdn(a2-3)Gal(b1-4)[Fuc(a1-3)]GlcNAc
Outline: as §1

[35] = biological target: Kdn(a2-6)Gal(b1-4)GlcNAc
Outline: as §1

[36] = biological target: Man(a1-2)Man(a1-2)Man(a1-3)Man
Outline: as §1

[37] = biological target: Man(a1-2)Man(a1-2)Man(a1-6)[Man(a1-3)]Man
Outline: as §1

[38] = biological target: Man(a1-2)Man(a1-3)Man
Outline: as §1

B1: a L Fucosidase (Thermotoga maritima) (protein)
chain: MASMKPRYKPDWESLREHTVPKWFDKAKFGIFIHWGIYSVPGWATPTGELGKVPMDAWFFQNPYAEWYENSLRIKESPTWEYHVKTYGENFEYEKFADLFTAEKWDPQEWADLFKKAGAKYVIPTTKHHDGFCLWGTKYTDFNSVKRGPKRDLVGDLAKAVREAGLRFGVYYSGGLDWRFTTEPIRYPEDLSYIRPNTYEYADYAYKQVMELVDLYLPDVLWNNMGWPEKGKEDLKYLFAYYYNKHPEGSVNDRWGVPHWDFKTAEYHVNYPGDLPGYKWEFTRGIGLSFGYNRNEGPEHMLSVEQLVYTLVDVVSKGGNLLLNVGPKGDGTIPDLQKERLLGLGEWLRKYGDAIYGTSVWERCCAKTEDGTEIRFTRKCNRIFVIFLGIPTGEKIVIEDLNLSAGTVRHFLTGERLSFKNVGKNLEITVPKKLLETDSITLVLEAVEE
glycan array binding signal (z-score) [1]: 0.079
glycan array binding signal (z-score) [2]: 1.68
glycan array binding signal (z-score) [3]: 0.296
glycan array binding signal (z-score) [4]: 0.301
glycan array binding signal (z-score) [5]: 3.94
glycan array binding signal (z-score) [6]: 0.033
glycan array binding signal (z-score) [7]: -0.204
glycan array binding signal (z-score) [8]: 0.076
glycan array binding signal (z-score) [9]: 1.08
glycan array binding signal (z-score) [10]: 0.501
glycan array binding signal (z-score) [11]: -0.588
glycan array binding signal (z-score) [12]: -0.682
glycan array binding signal (z-score) [13]: -0.942
glycan array binding signal (z-score) [14]: 1.65
glycan array binding signal (z-score) [15]: 0.033
glycan array binding signal (z-score) [16]: -0.409
glycan array binding signal (z-score) [17]: 0.794
glycan array binding signal (z-score) [18]: -0.885
glycan array binding signal (z-score) [19]: -0.122
glycan array binding signal (z-score) [20]: -0.44
glycan array binding signal (z-score) [21]: 0.482
glycan array binding signal (z-score) [22]: -0.204
glycan array binding signal (z-score) [23]: -0.381
glycan array binding signal (z-score) [24]: 0.509
glycan array binding signal (z-score) [25]: -0.515
glycan array binding signal (z-score) [26]: -0.289
glycan array binding signal (z-score) [27]: -0.598
glycan array binding signal (z-score) [28]: -0.336
glycan array binding signal (z-score) [29]: 1.52
glycan array binding signal (z-score) [30]: 1.77
glycan array binding signal (z-score) [31]: -0.53
glycan array binding signal (z-score) [32]: 0.508
glycan array binding signal (z-score) [33]: 0.012
glycan array binding signal (z-score) [34]: 0.051
glycan array binding signal (z-score) [35]: -0.096
glycan array binding signal (z-score) [36]: 1.06
glycan array binding signal (z-score) [37]: -0.125
glycan array binding signal (z-score) [38]: -0.9
